In assay [1] the target is Sp1 (human (endogenous in SUDHL4)) (UniProt P08047). In words: affinity purification with mass spectrometry.
For assay [2] the target is unchanged. In words: condition: only cells treated with etoposide plus the Chk1 inhibitor Rabusertib.

Amino acid sequences for entries named in this document (tags omitted).
UniProt P08047: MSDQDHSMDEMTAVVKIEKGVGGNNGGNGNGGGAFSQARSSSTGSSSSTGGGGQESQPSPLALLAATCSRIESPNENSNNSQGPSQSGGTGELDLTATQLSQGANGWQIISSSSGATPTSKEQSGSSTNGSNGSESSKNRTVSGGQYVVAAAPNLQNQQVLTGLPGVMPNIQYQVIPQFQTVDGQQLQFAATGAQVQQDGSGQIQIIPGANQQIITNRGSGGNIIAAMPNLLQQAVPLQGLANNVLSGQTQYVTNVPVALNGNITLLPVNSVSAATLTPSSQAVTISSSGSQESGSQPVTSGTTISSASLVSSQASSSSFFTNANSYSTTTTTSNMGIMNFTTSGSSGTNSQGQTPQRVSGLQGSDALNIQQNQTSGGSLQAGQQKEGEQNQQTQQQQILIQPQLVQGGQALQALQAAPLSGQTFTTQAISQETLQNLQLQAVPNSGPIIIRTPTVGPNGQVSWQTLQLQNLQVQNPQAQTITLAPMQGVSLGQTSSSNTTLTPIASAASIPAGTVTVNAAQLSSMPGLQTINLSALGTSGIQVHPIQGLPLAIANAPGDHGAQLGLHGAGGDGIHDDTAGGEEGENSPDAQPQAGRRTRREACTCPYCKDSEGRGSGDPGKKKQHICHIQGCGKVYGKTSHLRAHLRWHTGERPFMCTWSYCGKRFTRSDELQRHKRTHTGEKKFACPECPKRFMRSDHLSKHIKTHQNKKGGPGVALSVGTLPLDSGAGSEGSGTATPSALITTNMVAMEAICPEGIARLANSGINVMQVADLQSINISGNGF
UniProt Q13422: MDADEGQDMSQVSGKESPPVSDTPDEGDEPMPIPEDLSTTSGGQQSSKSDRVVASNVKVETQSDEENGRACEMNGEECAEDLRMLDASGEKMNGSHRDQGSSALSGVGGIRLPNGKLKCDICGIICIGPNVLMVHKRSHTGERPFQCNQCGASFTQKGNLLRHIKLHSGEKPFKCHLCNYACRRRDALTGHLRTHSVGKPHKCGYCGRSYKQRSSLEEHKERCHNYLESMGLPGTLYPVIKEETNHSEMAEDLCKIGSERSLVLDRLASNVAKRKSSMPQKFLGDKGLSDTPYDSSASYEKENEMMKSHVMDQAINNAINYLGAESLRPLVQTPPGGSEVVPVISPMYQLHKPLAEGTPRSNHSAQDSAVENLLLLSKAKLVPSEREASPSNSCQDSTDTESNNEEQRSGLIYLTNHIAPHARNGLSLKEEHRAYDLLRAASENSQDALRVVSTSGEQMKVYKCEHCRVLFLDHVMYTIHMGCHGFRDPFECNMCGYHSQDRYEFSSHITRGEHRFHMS
UniProt Q9UKS7: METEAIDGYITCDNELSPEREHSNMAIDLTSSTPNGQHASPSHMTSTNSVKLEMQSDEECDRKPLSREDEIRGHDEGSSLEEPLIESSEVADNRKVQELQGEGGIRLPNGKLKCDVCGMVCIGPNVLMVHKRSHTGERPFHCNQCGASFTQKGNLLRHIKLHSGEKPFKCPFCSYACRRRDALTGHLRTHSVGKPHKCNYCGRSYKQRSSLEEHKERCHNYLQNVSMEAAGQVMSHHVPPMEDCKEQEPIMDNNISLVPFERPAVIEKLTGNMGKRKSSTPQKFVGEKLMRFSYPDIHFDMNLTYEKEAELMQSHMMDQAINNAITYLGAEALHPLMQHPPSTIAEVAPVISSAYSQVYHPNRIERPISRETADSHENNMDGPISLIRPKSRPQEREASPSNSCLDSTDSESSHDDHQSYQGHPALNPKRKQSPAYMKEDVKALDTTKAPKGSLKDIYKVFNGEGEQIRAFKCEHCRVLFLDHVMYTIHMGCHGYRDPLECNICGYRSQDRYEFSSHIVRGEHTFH
UniProt Q9UKT9: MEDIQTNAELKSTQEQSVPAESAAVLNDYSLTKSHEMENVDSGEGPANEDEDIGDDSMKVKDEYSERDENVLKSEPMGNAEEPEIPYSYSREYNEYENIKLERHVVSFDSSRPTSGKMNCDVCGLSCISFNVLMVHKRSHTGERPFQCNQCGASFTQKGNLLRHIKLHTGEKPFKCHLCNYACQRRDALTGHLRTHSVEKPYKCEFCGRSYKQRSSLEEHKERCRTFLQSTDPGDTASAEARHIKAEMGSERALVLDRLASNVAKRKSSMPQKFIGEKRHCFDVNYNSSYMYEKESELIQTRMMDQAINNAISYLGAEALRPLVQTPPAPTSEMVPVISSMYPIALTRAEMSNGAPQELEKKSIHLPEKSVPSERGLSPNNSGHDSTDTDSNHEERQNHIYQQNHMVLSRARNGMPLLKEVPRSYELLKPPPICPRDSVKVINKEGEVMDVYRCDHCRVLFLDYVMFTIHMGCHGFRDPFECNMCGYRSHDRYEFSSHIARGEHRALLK
UniProt Q92830: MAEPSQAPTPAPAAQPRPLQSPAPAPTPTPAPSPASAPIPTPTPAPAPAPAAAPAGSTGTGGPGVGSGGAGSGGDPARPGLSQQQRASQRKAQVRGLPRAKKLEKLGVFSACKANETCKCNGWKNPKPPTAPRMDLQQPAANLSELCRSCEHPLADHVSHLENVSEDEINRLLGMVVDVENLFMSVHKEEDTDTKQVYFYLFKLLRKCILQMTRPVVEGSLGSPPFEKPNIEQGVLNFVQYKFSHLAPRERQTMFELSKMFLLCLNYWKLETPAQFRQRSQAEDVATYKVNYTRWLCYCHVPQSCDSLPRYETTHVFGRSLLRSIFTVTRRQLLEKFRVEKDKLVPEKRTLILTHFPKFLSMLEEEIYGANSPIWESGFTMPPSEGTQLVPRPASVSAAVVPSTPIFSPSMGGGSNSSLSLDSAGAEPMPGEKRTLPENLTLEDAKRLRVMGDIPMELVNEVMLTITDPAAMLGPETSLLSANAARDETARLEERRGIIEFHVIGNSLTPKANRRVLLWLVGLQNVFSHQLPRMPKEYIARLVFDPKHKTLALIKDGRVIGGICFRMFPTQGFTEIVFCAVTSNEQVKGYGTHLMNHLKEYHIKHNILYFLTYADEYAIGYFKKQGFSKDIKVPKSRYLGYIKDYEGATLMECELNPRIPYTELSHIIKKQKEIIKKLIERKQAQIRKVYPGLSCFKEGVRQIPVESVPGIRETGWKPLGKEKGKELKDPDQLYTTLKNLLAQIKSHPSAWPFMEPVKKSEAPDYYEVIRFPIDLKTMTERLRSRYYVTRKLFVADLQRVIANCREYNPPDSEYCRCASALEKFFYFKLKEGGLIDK

These are yes or no findings as the source states them, for the method shown. In cells and extracts the contact can be indirect. Here binding means that the protein was enriched with, or labelled near, the bait; the list need not be complete. For some of these results: No binding means not detected with the bait.

As to IKZF1 (from UniProt Q13422 1-519), the binding result in assay [1] is listed as “binds”.
Turning to IKZF2 (from UniProt Q9UKS7 1-526), in assay [1], the binding entry is given as “binds”.
The same measure, in the same setting: the result for IKZF3 (from UniProt Q9UKT9 1-509) reads “binds”.
For the molecule “histone acetyltransferase KAT2A (from UniProt Q92830 1-837)”, the binding result in assay [1] is “binds”; in assay [2], “no binding”.

B1: ZZZ3 (protein, UniProt Q8IYH5 1-903)
chain: MAASRSTRVTRSTVGLNGLDESFCGRTLRNRSIAHPEEISSNSQVRSRSPKKRPEPVPIQKGNNNGRTTDLKQQSTRESWVSPRKRGLSSSEKDNIERQAIENCERRQTEPVSPVLKRIKRCLRSEAPNSSEEDSPIKSDKESVEQRSTVVDNDADFQGTKRACRCLILDDCEKREIKKVNVSEEGPLNSAVVEEITGYLAVNGVDDSDSAVINCDDCQPDGNTKQNSIGSYVLQEKSVAENGDTDTQTSMFLDSRKEDSYIDHKVPCTDSQVQVKLEDHKIVTACLPVEHVNQLTTEPATGPFSETQSSLRDSEEEVDVVGDSSASKEQCKENTNNELDTSLESMPASGEPEPSPVLDCVSAQMMSLSEPQEHRYTLRTSPRRAAPTRGSPTKNSSPYRENGQFEENNLSPNETNATVSDNVSQSPTNPGEISQNEKGICCDSQNNGSEGVSKPPSEARLNIGHLPSAKESASQHITEEEDDDPDVYYFESDHVALKHNKDYQRLLQTIAVLEAQRSQAVQDLESLGRHQREALKNPIGFVEKLQKKADIGLPYPQRVVQLPEIVWDQYTHSLGNFEREFKNRKRHTRRVKLVFDKVGLPARPKSPLDPKKDGESLSYSMLPLSDGPEGSSSRPQMIRGRLCDDTKPETFNQLWTVEEQKKLEQLLIKYPPEEVESRRWQKIADELGNRTAKQVASRVQKYFIKLTKAGIPVPGRTPNLYIYSKKSSTSRRQHPLNKHLFKPSTFMTSHEPPVYMDEDDDRSCFHSHMNTAVEDASDDESIPIMYRNLPEYKELLQFKKLKKQKLQQMQAESGFVQHVGFKCDNCGIEPIQGVRWHCQDCPPEMSLDFCDSCSDCLHETDIHKEDHQLEPIYRSETFLDRDYCVSQGTSYNYLDPNYFPANR
With B1, the binding entry in assay [1] is listed as “binds”.

B2: SAP130 (protein, UniProt Q9H0E3 1-1048)
chain: MGPPRHPQAGEIEAGGAGGGRRLQVEMSSQQFPRLGAPSTGLSQAPSQIANSGSAGLINPAATVNDESGRDSEVSAREHMSSSSSLQSREEKQEPVVVRPYPQVQMLSTHHAVASATPVAVTAPPAHLTPAVPLSFSEGLMKPPPKPTMPSRPIAPAPPSTLSLPPKVPGQVTVTMESSIPQASAIPVATISGQQGHPSNLHHIMTTNVQMSIIRSNAPGPPLHIGASHLPRGAAAAAVMSSSKVTTVLRPTSQLPNAATAQPAVQHIIHQPIQSRPPVTTSNAIPPAVVATVSATRAQSPVITTTAAHATDSALSRPTLSIQHPPSAAISIQRPAQSRDVTTRITLPSHPALGTPKQQLHTMAQKTIFSTGTPVAAATVAPILATNTIPSATTAGSVSHTQAPTSTIVTMTVPSHSSHATAVTTSNIPVAKVVPQQITHTSPRIQPDYPAERSSLIPISGHRASPNPVAMETRSDNRPSVPVQFQYFLPTYPPSAYPLAAHTYTPITSSVSTIRQYPVSAQAPNSAITAQTGVGVASTVHLNPMQLMTVDASHARHIQGIQPAPISTQGIQPAPIGTPGIQPAPLGTQGIHSATPINTQGLQPAPMGTQQPQPEGKTSAVVLADGATIVANPISNPFSAAPAATTVVQTHSQSASTNAPAQGSSPRPSILRKKPATDGAKPKSEIHVSMATPVTVSMETVSNQNNDQPTIAVPPTAQQPPPTIPTMIAAASPPSQPAVALSTIPGAVPITPPITTIAAAPPPSVTVGGSLSSVLGPPVPEIKVKEEVEPMDIMRPVSAVPPLATNTVSPSLALLANNLSMPTSDLPPGASPRKKPRKQQHVISTEEGDMMETNSTDDEKSTAKSLLVKAEKRKSPPKEYIDEEGVRYVPVRPRPPITLLRHYRNPWKAAYHHFQRYSDVRVKEEKKAMLQEIANQKGVSCRAQGWKVHLCAAQLLQLTNLEHDVYERLTNLQEGIIPKKKAATDDDLHRINELIQGNMQRCKLVMDQISEARDSMLKVLDHKDRVLKLLNKNGTVKKVSKLKRKEKV
Regarding B2, the binding result in assay [1] was “binds”.

Source of the values: article doi:10.1101/2025.02.17.638751.
